The campaign covered roughly 300,000 compounds. About 5,400 (1.8%) were called active. This list was built around the results that the source calls inconclusive (neither active nor inactive); the mix of calls is not that of the screen. Calls follow the shape of the full dose curve; tested in HEK293 cells. Potencies of inconclusive entries are doubtful fits and often do not repeat.
Assay: qHTS for inhibitors of binding or entry into cells for Marburg Virus
Settings: Marburg virus pseudotyped entry inhibition, cell reporter; series mostly up to 37.8 µM
Potency is read from the fitted curve at half-maximal effect.

Compound	Potency
Cc1ccc(/C=N/NC(=O)NN(C)c2ncc(C(F)(F)F)cc2Cl)cc1	inconclusive: 3.16 µM [inhibitor, single point]
CC(C)(C)c1ccc(/C=N/OCC(=O)NCc2ccc(F)cc2)cc1	inconclusive: 1.3 µM [inhibitor, partial curve, poor fit]
CSCCC(NC(=O)C1CCCCC1)C(=O)Nc1ccc(F)c(Cl)c1 (configuration not stated)	inconclusive: 2.82 µM [inhibitor, single point]
O=C(NC1CCCCC1)c1cc2nc3c(c(C(F)(F)F)n2n1)CCCC3	inconclusive: 3.98 µM [activator, single point]
c1ccc(CN2CCN(Cc3nnc(-c4ccccc4)o3)CC2)cc1	inactive
Cc1cccc(N2CCN(C(=O)c3cn(C)c(=O)c4c3c3ccccc3n4C)CC2)c1C	inconclusive: 29.1 µM [inhibitor, single point]
O=C(COc1ccccc1)NCC(=O)N/N=C/c1ccc(Br)cc1	inactive
O=c1/c(=C/c2ccc([N+](=O)[O-])cc2)sc2n1CCCN=2	inactive
COc1ccc(N(C(=O)c2ccccc2C)S(=O)(=O)c2ccc3c(c2)n(C)c(=O)n3C)cc1	inconclusive: 3.16 µM [inhibitor, single point]
O=C(c1[nH]nc2c1CCc1ccccc1-2)N1CCN(Cc2ccc3c(c2)OCO3)CC1	inconclusive: 11.2 µM [inhibitor, partial curve, poor fit]
O/N=C(/CCc1ccccc1)c1ccc2c(c1)OCCO2	inactive
Cc1ccc(S(=O)(=O)NC(CC(=O)O)c2ccco2)cc1 (configuration not stated)	inconclusive: 6.51 µM [activator, single point]
Nc1ccc(SCC(=O)Nc2cccc([N+](=O)[O-])c2)cc1	inactive
O=C(CN1CCCCC1)N1CCN(c2ccccc2)CC1	inconclusive: 3.16 µM [activator, single point]
COC(=O)c1cc(-c2ccccc2)n(CC(=O)O)c1C	inconclusive: 35.5 µM [activator, single point]
CCCCn1c(N)c(N(CC(C)C)C(=O)c2cc(-c3ccc(OC)c(OC)c3)nc3ccccc23)c(=O)[nH]c1=O	inactive
CCOC(=O)/C(C#N)=C/c1ccc(N2CCN(C)CC2)cc1	inconclusive: 0.891 µM [activator, partial curve, poor fit]
Cc1cccc(C)c1N/C=C/c1onc(C)c1[N+](=O)[O-]	inactive
O=C(CSc1ccc(Cl)cc1)Nc1ccc(C2SCCS2)cc1	inactive
Cc1c(C(=O)N2CCC(C(N)=O)CC2)oc2ccc(Br)cc12	inactive
COc1ccc(CNC(=O)C2CCCN(S(=O)(=O)c3cc(C)ccc3OC)C2)cc1 (configuration not stated)	inconclusive: 18.3 µM [inhibitor, single point]
COc1cc(-c2nnc(SCC(=O)N(C)C3CCCCC3)o2)cc(OC)c1OC	inactive
CC(=O)Oc1ccc(C(=O)Nc2ccccc2C(=O)N2CCCC2)cc1	inconclusive: 8.91 µM [activator, partial curve, poor fit]
COc1ccc(C(O)c2cc(OC)ccc2OP(=O)(N(C)C)N(C)C)cc1 (configuration not stated)	inactive

Compound	Potency
COc1cc2c(cc1NC(=O)C(C)Oc1ccc(Cl)cc1Cl)oc1ccccc12 (configuration not stated)	inactive
CC1(O)c2ccccc2C(=O)N1Cc1ccccc1 (configuration not stated)	inactive
NS(=O)(=O)c1ccc(CCNC(=O)CN2CCN(c3ccc(F)cc3)CC2)cc1	inconclusive: 25.1 µM [inhibitor, partial curve, poor fit]
Cc1ccc(NS(=O)(=O)c2ccc(NC(=O)C(C)Sc3ccc(Cl)cc3)cc2)c(C)c1 (configuration not stated)	inconclusive: 20.6 µM [inhibitor, single point]
CCN(CC)c1ccc(/C=N/NC(=O)c2cccc(S(=O)(=O)N3CCOCC3)c2)cc1	inactive
CCc1ccc(C(=O)Nc2cc(C)ccc2F)s1	inactive
CCOc1ccc(C(=O)C(CCC(CN(C)C)C(=O)c2ccc(OCC)cc2)CN(C)C)cc1 (configuration not stated)	active: 1.03 µM
Cc1cc(C)cc(NC(=O)NCC2CCN(Cc3cc(C)ccc3C)CC2)c1	inconclusive: 6.31 µM [inhibitor, single point]
CC(=O)Nc1ccc(-c2nnc3n(CC(C)C)c(=O)c4ccccc4n23)cc1	inconclusive: 15.8 µM [inhibitor, single point]
O=C(Nc1ccc(Br)cn1)c1ccc(Br)s1	inconclusive: 7.08 µM [inhibitor, partial curve]
COc1ccc(S(=O)(=O)N2CCc3ccccc32)cc1C(=O)NCCc1ccccn1	inconclusive: 1.26 µM [inhibitor, partial curve, poor fit]
CCOC(=O)c1sc2nc(N3CCOCC3)c3c(c2c1N)CCN(C)C3	inactive
C=C(C)CSc1ncc(-c2cccc(C(F)(F)F)c2)cn1	inactive
COc1ccc2ccccc2c1/C=N/N1C(=O)CSC1=S	inactive
Cc1cc(C)nc(CCNC(=O)CC2C(=O)NCCN2Cc2ccccc2)n1 (configuration not stated)	inactive
COc1ccc(N(CC(=O)Nc2cccc(OC)c2)S(=O)(=O)c2c(C)nn(C)c2C)cc1	inconclusive: 32.6 µM [inhibitor, single point]
Cc1ccc(-c2ccc(/C=C3/NC(=O)NC3=O)o2)cc1[N+](=O)[O-]	inactive
COc1ccccc1NC(=O)Nc1nc(CC(=O)Nc2ccc(OC)c(OC)c2)cs1	inactive
COc1ccc(-c2noc(CSc3nnc(-c4ccncc4)n3-c3cccc(C)c3)n2)cc1OC	inactive
COc1cccc(-c2nc(N3CCCC[C@H]3C)c3ccccc3n2)c1O	inconclusive: 11.2 µM [inhibitor, single point]
COc1ccc(NC(=O)COC(=O)CCC2CCCCC2)cc1	inactive
CSc1ccccc1NC(=O)COc1ccc(Cl)cc1Cl	inconclusive: 35.5 µM [inhibitor, single point]
COc1cccc(C(=O)Oc2cc3c4c(c2)C(C)=CC(C)(C)N4C(=O)C3=O)c1	inconclusive: 9.2 µM [inhibitor, partial curve]
COc1ccc([C@H]2NC(=O)N[C@](O)(C(F)(F)F)[C@@H]2C(=O)c2ccc(F)cc2)cc1	inconclusive: 2.51 µM [inhibitor, full curve, poor fit]

Compound	Potency
O=C1CCc2ccc(NS(=O)(=O)c3ccc(F)cc3)cc2N1	inconclusive: 35.5 µM [activator, single point]
Cc1ccc(NC(=O)C(C)OC(=O)c2n[nH]c3ccccc23)cc1 (configuration not stated)	inconclusive: 22.4 µM [inhibitor, single point]
CCCn1c(=N)n(CC(=O)c2ccc([N+](=O)[O-])cc2)c2ccccc21	inconclusive: 35.5 µM [inhibitor, partial curve, poor fit]
c1nc(NCC2(N3CCOCC3)CCCCC2)c2ccsc2n1	inconclusive: 25.9 µM [inhibitor, partial curve, poor fit]
O=[N+]([O-])c1nn(-c2ccc3c(c2)OCCO3)n(O)c1=NC1CCCCCC1	inconclusive: 6.51 µM [activator, single point]
CCCSc1nnc(CN2CCOCC2)n1C	inconclusive: 31.6 µM [activator, single point]
O=C(CSc1ccccc1)Nc1ccncc1	inactive
CN(C)C(=O)Cn1c(SCC(=O)NCc2ccc3c(c2)OCO3)nc2ccccc21	inactive
COc1ccc(-c2[nH]c(-c3ccccc3)nc2SCC(=O)Nc2ccc3c(c2)OCO3)cc1	inconclusive: 0.794 µM [inhibitor, single point]
O=C1C(O)CCN1C1CCCCC1 (configuration not stated)	inconclusive: 35.5 µM [activator, single point]
Cc1ccc(NS(=O)(=O)c2cccc(C(=O)NCCc3c[nH]c4ccccc34)c2)c(C)c1	inconclusive: 12.6 µM [inhibitor, partial curve, poor fit]
O=[N+]([O-])c1ccc2ccn(C3OCC(O)C(O)C3O)c2c1 (configuration not stated)	inactive
C/C(=N\NC(N)=O)c1ccccc1	inactive
N/C(=N\OC(=O)c1cc(Cl)ccc1Cl)c1cccnc1	inconclusive: 10 µM [activator, partial curve, poor fit]
Cc1ccc(S(=O)(=O)N2CCN(C(=O)c3ccccn3)CC2)cc1	inconclusive: 0.206 µM [inhibitor, full curve, poor fit]
CCOC(=O)C(C)NC(=O)c1cc2c(=O)[nH]c3ccc(C)cc3c2s1 (configuration not stated)	inconclusive: 14.1 µM [activator, single point]
COc1ccc(/C=C/C(=O)Nc2ccccc2C(=O)N2CCCC2)cc1	inactive
O=C(NCCc1ccc(Cl)cc1)c1ccc2c(c1)N(Cc1ccc(F)cc1Cl)C(=O)CS2	inactive
CN(C)C(=O)CCC(=O)N1CCCC(C(=O)c2ccc3c4c(cccc24)CC3)C1 (configuration not stated)	inconclusive: 5.62 µM [inhibitor, partial curve, poor fit]
CCc1c(C)nc2c(-c3ccccc3)c[nH]n2c1=O	inconclusive: 3.16 µM [inhibitor, partial curve, poor fit]
O=C(Cn1ncc2c3ccccc3n(Cc3ccccc3)c2c1=O)NCCCN1CCCC1=O	inactive
CCCn1c(N)c(C(=O)COC(=O)/C=C/c2ccc(OC(F)F)c(OC)c2)c(=O)[nH]c1=O	inconclusive: 15.8 µM [inhibitor, partial curve, poor fit]
COc1ccc(-c2cc(C(=O)N(C)Cc3ccccc3F)c3ccccc3n2)cc1OC	inconclusive: 15.8 µM [inhibitor, partial curve, poor fit]
CCCc1ccc(-c2cc(C(=O)NN3CCOCC3)c3ccccc3n2)cc1	inconclusive: 2.59 µM [activator, full curve, poor fit]

6 entries from above, as comma-separated lines:
Compound,Potency
O=C1CCc2ccc(NS(=O)(=O)c3ccc(F)cc3)cc2N1,"inconclusive: 35.5 µM [activator, single point]"
Cc1ccc(NC(=O)C(C)OC(=O)c2n[nH]c3ccccc23)cc1 (configuration not stated),"inconclusive: 22.4 µM [inhibitor, single point]"
CCCn1c(=N)n(CC(=O)c2ccc([N+](=O)[O-])cc2)c2ccccc21,"inconclusive: 35.5 µM [inhibitor, partial curve, poor fit]"
c1nc(NCC2(N3CCOCC3)CCCCC2)c2ccsc2n1,"inconclusive: 25.9 µM [inhibitor, partial curve, poor fit]"
O=[N+]([O-])c1nn(-c2ccc3c(c2)OCCO3)n(O)c1=NC1CCCCCC1,"inconclusive: 6.51 µM [activator, single point]"
CCCSc1nnc(CN2CCOCC2)n1C,"inconclusive: 31.6 µM [activator, single point]"

Source: PubChem BioAssay AID540276 (National Center for Advancing Translational Sciences (NCATS), 2011)
